PMC6443775
No constants are given. Whether binding was seen depends on the method and setting. In cells and extracts the contact can be indirect. Some binding calls cover weakened binding; strength is not graded here.

Protein sequences, listed by entry. Tags and fused reporters are not part of them. Residues count along the entry.
UniProt P19793, residues 86-462: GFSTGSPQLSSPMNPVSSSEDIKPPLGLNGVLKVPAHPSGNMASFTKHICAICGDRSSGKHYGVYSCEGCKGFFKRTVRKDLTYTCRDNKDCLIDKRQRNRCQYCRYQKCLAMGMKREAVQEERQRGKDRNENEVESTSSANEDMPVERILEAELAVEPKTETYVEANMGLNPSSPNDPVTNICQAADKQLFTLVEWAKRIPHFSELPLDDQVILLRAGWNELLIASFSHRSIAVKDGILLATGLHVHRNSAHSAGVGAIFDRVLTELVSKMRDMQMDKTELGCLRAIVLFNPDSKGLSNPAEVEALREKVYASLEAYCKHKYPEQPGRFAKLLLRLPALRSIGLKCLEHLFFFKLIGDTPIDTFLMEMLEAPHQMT

Molecular target: T1, TRAF6, endogenous in mouse macrophages (mouse (endogenous in BMDMs and RAW264.7)) (UniProt P70196)
T1 sequence: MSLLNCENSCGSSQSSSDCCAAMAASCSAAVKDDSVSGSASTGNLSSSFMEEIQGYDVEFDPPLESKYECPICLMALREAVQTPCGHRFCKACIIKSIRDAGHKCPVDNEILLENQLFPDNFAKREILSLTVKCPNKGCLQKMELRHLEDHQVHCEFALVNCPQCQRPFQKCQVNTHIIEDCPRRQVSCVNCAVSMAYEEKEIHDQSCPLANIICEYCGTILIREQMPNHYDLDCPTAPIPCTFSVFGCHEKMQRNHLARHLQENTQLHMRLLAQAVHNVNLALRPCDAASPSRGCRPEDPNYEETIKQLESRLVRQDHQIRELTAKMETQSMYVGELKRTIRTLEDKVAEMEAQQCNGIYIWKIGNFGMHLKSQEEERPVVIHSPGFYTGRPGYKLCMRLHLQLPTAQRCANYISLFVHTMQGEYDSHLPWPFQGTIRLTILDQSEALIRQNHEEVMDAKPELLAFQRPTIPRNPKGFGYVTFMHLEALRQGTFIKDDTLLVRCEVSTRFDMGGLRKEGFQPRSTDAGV
Assay: co-IP; lysates of WT- and tRXRα-BMDMs, with or without LPS (50 ng/ml, 15 min); immunoprecipitation with anti-TRAF6 antibody, immunoblotting

- binding: binds
Substance: truncated retinoid X receptor α (tRXRα), transgene of Tg-tRXRα mice (from UniProt P19793 86-462) (domain or fragment)
